Laboratory results reported in paper PMC9033807.
These are yes or no findings as the source states them, for the method shown. In cells and extracts the contact can be indirect. Some results given as binding are weak or reduced against the parent protein; the word gives no strength.

The chains behind the UniProt entries cited, without tags or fusion partners.
UniProt Q9UKV8: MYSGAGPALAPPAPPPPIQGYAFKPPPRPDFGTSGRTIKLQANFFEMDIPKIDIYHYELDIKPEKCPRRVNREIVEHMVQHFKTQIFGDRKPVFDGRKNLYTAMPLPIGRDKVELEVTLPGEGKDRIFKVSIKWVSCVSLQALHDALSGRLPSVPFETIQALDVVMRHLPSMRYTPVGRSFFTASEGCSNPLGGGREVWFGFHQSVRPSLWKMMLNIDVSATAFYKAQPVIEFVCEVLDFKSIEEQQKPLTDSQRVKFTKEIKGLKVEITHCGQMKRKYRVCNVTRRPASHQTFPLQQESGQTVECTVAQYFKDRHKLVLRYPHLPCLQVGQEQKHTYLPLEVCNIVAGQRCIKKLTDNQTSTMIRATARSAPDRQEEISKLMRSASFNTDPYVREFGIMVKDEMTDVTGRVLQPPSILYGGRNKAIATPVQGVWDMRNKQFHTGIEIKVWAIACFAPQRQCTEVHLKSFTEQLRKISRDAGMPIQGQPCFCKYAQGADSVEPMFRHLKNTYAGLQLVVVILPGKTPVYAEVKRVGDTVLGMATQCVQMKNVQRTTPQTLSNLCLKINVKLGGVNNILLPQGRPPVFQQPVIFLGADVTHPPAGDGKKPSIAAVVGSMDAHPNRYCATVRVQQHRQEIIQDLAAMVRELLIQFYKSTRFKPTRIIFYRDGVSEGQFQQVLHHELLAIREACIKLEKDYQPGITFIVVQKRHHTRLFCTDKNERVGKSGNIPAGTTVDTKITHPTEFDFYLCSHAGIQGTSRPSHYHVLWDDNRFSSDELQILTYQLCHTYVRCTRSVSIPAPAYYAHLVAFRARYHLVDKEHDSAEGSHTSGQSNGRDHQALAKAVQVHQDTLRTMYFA

Target: Argonaute2 (Ago2), endogenous (human (endogenous in H1299 and SCC9)) (UniProt Q9UKV8)
Assay: co-IP; endogenous proteins; cells lysed in 50 mM Tris-HCl pH 8.0, 5 mM EDTA, 150 mM NaCl, 0.5% NP-40; immunoprecipitated with specific antibodies, protein A agarose; Western blotting; H1299 or SCC9 cells

B1: TAp63, endogenous (protein, UniProt Q9H3D4 1-680)
chain: MNFETSRCATLQYCPDPYIQRFVETPAHFSWKESYYRSTMSQSTQTNEFLSPEVFQHIWDFLEQPICSVQPIDLNFVDEPSEDGATNKIEISMDCIRMQDSDLSDPMWPQYTNLGLLNSMDQQIQNGSSSTSPYNTDHAQNSVTAPSPYAQPSSTFDALSPSPAIPSNTDYPGPHSFDVSFQQSSTAKSATWTYSTELKKLYCQIAKTCPIQIKVMTPPPQGAVIRAMPVYKKAEHVTEVVKRCPNHELSREFNEGQIAPPSHLIRVEGNSHAQYVEDPITGRQSVLVPYEPPQVGTEFTTVLYNFMCNSSCVGGMNRRPILIIVTLETRDGQVLGRRCFEARICACPGRDRKADEDSIRKQQVSDSTKNGDGTKRPFRQNTHGIQMTSIKKRRSPDDELLYLPVRGRETYEMLLKIKESLELMQYLPQHTIETYRQQQQQQHQHLLQKQTSIQSPSSYGNSSPPLNKMNSMNKLPSVSQLINPQQRNALTPTTIPDGMGANIPMMGTHMPMAGDMNGLSPTQALPPPLSMPSTSHCTPPPPYPTDCSIVSFLARLGCSSCLDYFTTQGLTTIYQIEHYSMDDLASLKIPEQFRHAIWKGILDHRQLHEFSSPSHLLRTPSSASTVSVGSSETRGERVIDAVRFTLRQTISFPPRDEWNDFNFDMDARRNKQQRIKEEGE
binding: binds
